Results from PMC5974779, “Prediction of Drug-Induced Hepatotoxicity Using Long-Term Stable Primary Hepatic 3D Spheroid Cultures in Chemically Defined Conditions” (Toxicological Sciences, 2018).

Experiments:
[1] = system: primary human hepatocytes (PHH) 3D spheroids
[2] = system: PHH 2D sandwich cultures; settings: cited from earlier work

## COc1cc2c(cc1OC)C(=O)C(CC1CCN(Cc3ccccc3)CC1)C2 (centres unmarked) [Donepezil]
[1]
  Chemically defined spheroids (this study) 20x: Negative
[2]
  2Dsw (Xu 2008) 100x: Negative
